This is one part of the list.
Experiments:
Experiment in all cases: log2 fold change, soluble protein after heating vs DMSO (PISA); higher = thermal stabilisation; K562 cells, 10 uM, 30 min; active = over 0.2 and 3.5 SD of the protein, either way, in both replicates (recomputed)
[1] = compound: CC1=C(C=C(C=C1)NC(=O)C2=CC(=CC=C2)C(C)(C)C#N)NC3=CC4=C(C=C3)N=CN(C4=O)C
Procedure, shortened: (§1)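 Values are thermal stability changes relative to control samples and are taken from duplicates. They are stated as log2 fold changes. Before quantification by TMTpro 16plex LC-MS/MS with equalised channel sums, K562 cells at 2×10^6 cells/mL were treated with 10 μM compound for 30 min, heated in aliquots for 3 min across 48°C-58°C, pooled, extracted in PBS with 0.5% NP-40 at 4°C, and centrifuged at 21,000xg for 90 min to give the soluble supernatant.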

Chains of the proteins cited; added tags and fusions are not shown. Lines headed by an entry give the natural chain unless they say otherwise; changes in a name come on top.
UniProt P55345: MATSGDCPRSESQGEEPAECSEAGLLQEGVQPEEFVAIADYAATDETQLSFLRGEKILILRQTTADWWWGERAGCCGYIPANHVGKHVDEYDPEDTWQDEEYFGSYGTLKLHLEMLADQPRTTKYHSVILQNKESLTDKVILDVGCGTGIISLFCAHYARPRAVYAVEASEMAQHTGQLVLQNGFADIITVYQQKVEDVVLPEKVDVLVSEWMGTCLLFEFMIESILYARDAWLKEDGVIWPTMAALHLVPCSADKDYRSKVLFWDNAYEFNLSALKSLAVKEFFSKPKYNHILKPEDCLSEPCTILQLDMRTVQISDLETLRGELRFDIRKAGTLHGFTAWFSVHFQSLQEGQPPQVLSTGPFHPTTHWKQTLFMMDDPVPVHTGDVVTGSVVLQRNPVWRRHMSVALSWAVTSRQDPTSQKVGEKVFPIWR
UniProt P05771, whole entry, looked up: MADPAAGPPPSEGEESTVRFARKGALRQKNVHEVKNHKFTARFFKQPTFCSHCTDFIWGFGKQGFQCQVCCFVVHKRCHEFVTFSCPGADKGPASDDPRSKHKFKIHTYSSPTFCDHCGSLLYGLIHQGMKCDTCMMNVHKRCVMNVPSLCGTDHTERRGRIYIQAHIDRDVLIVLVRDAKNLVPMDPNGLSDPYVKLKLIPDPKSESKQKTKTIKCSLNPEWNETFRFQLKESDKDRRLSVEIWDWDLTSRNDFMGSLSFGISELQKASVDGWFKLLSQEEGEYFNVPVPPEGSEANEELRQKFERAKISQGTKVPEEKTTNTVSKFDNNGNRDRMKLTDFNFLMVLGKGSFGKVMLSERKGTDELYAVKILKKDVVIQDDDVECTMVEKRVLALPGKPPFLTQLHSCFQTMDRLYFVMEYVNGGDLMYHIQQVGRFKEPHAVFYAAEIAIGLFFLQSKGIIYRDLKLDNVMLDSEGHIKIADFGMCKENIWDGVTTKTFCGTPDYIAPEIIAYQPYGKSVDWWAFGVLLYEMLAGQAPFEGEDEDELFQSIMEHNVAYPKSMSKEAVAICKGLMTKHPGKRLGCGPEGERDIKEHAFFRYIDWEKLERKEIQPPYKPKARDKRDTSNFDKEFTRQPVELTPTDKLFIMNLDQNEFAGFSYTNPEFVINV
UniProt Q06830: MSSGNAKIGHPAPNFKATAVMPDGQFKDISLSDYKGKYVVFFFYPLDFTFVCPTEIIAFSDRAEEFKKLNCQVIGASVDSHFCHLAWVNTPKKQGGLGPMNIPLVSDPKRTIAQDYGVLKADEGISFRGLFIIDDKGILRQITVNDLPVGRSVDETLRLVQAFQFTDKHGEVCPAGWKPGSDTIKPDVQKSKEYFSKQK
UniProt O43741: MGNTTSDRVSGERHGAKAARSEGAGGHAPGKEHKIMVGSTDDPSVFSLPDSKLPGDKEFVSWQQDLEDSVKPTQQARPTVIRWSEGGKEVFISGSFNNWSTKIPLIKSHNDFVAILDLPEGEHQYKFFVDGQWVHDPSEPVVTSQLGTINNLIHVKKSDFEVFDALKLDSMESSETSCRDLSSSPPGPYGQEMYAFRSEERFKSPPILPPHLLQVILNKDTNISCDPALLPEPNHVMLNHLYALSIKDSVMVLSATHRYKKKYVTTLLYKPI
UniProt Q8TAP8: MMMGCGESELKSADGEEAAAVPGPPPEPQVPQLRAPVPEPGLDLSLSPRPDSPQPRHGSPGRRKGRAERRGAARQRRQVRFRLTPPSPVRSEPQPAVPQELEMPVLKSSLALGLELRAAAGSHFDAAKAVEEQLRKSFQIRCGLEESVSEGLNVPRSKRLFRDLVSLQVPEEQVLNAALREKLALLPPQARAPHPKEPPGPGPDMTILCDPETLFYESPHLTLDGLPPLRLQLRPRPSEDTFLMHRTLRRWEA
UniProt O60256: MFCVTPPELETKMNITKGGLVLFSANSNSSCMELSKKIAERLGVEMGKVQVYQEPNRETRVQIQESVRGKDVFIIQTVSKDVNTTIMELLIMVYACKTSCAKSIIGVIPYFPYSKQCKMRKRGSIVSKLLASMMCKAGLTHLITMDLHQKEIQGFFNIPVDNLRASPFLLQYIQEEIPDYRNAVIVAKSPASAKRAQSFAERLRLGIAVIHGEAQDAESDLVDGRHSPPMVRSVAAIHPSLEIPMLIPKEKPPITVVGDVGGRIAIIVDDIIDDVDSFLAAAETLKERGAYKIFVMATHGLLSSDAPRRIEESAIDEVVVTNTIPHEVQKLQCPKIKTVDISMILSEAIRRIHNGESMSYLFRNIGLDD
UniProt Q16537, whole entry, looked up: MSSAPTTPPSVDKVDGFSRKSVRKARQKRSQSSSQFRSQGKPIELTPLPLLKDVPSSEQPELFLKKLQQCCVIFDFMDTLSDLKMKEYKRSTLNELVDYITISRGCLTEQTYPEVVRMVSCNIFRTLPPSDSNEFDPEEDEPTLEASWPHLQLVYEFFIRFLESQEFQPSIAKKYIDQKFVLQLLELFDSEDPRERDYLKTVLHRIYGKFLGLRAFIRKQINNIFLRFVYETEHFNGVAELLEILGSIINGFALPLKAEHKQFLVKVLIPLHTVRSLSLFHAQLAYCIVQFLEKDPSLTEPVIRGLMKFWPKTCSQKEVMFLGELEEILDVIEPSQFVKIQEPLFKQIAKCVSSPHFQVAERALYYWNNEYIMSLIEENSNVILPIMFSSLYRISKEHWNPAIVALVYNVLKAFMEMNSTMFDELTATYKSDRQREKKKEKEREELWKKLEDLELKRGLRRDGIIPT
UniProt O14974: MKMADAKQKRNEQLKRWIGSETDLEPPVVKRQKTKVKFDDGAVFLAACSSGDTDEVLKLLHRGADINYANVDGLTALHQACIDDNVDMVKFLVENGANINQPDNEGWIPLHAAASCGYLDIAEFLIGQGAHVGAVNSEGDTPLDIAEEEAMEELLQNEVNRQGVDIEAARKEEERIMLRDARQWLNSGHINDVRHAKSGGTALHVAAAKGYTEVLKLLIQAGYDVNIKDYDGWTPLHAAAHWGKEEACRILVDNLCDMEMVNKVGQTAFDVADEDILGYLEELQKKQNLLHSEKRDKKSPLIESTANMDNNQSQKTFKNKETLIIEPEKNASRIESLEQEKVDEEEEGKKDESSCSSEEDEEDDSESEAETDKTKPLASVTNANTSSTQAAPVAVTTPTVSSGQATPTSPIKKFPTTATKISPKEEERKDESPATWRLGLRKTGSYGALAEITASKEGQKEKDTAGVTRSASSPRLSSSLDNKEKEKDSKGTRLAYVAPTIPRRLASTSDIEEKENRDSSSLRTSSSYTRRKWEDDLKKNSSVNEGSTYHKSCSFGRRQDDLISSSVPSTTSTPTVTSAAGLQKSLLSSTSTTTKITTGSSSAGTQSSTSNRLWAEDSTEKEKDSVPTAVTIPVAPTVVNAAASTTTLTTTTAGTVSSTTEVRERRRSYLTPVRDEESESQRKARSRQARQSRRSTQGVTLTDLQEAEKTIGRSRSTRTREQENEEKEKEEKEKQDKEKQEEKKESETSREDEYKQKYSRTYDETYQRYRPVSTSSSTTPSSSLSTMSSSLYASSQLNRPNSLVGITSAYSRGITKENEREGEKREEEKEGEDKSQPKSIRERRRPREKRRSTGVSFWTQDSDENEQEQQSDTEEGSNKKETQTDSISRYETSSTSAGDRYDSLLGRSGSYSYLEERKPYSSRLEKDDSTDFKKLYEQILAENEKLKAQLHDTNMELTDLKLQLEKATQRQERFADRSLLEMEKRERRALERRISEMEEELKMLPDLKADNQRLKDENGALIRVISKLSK
UniProt P49642: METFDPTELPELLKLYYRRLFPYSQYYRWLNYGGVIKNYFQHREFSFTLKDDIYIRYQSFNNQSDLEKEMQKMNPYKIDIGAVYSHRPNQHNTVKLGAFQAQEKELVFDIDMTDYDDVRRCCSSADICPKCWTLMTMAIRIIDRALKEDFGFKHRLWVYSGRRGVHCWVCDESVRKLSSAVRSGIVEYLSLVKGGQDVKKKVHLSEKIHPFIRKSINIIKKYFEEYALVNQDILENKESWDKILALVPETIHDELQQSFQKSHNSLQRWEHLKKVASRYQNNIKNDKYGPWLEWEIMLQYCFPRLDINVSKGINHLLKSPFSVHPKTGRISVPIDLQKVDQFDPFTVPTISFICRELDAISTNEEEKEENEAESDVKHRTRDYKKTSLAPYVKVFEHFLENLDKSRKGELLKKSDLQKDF
UniProt Q96C90: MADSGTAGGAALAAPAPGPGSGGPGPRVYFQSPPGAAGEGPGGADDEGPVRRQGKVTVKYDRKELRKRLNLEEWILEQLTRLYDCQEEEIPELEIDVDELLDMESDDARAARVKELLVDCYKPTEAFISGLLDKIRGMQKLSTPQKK
UniProt Q8NAV1: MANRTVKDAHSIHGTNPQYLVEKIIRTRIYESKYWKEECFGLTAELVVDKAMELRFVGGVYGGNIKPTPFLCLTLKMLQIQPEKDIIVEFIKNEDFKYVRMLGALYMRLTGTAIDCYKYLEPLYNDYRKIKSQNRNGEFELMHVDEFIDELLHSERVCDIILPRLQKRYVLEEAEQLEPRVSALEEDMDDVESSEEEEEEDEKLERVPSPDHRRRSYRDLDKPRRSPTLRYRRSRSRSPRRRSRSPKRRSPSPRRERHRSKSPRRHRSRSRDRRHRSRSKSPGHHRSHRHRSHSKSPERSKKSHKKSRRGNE
UniProt O14744, whole entry, looked up: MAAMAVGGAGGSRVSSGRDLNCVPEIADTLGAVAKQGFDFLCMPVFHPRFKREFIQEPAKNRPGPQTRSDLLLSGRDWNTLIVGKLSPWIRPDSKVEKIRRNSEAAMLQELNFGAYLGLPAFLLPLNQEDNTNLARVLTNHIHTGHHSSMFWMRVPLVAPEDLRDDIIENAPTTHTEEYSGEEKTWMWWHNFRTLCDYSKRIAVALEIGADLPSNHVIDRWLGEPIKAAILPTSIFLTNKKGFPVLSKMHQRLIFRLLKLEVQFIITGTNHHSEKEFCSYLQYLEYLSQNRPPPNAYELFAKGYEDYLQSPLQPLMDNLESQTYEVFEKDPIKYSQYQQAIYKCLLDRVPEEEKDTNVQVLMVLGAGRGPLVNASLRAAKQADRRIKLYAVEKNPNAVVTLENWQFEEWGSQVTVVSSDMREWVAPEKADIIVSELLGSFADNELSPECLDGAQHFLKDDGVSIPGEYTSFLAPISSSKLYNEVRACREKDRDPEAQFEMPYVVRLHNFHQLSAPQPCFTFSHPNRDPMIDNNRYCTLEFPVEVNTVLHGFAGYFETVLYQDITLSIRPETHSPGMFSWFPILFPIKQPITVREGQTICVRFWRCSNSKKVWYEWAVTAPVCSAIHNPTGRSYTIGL
UniProt Q86WR7: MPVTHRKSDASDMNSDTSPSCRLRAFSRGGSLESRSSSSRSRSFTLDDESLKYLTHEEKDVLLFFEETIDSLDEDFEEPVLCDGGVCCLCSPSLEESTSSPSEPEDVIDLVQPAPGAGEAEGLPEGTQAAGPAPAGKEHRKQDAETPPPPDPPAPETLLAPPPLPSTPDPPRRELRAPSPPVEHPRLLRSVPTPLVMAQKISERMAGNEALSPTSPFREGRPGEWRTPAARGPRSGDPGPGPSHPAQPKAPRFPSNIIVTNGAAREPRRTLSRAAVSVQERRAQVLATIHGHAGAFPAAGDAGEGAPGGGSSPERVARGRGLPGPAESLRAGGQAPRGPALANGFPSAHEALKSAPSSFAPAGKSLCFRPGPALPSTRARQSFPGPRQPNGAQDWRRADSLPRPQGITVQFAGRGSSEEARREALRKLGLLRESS
UniProt Q9BZL6: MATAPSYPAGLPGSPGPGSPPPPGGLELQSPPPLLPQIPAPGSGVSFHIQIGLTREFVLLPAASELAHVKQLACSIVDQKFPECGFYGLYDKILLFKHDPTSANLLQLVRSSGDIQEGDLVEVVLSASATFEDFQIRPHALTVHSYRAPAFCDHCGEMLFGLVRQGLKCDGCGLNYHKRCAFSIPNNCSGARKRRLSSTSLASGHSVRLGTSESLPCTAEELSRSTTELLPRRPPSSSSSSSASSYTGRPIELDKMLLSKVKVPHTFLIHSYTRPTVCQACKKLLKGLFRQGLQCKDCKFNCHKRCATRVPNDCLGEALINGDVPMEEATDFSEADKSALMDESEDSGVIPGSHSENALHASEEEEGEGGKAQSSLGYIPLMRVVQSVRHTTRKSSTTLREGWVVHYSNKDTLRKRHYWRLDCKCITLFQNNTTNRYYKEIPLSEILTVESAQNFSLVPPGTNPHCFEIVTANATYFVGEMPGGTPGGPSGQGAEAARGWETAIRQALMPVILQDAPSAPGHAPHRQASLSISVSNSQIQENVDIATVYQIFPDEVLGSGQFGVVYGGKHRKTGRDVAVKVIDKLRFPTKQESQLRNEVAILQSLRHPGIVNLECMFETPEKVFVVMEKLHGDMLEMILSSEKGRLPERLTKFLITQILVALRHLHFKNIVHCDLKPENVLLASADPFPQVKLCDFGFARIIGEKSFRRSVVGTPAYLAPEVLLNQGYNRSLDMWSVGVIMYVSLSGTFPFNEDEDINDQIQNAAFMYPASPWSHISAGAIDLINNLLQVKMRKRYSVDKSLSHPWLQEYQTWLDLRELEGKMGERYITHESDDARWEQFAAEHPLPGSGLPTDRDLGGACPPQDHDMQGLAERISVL

[2] = compound: CC1=C(C=C(C=C1)NC(=O)C2=CC(=CC=C2)N(C)C)NC(=O)C3=CC=C(C=C3)O
Procedure, shortened: as §1

[3] = compound: CC1=CC=C(C=C1)SC2=C3C=C(SC3=CN=C2)C(=O)N
Procedure, shortened: as §1

[4] = compound: CC1=NC(=CC=C1)C2=C(N=C(N2)C(C)(C)C)C3=CC4=NC=CN=C4C=C3
Procedure, shortened: as §1

Nexturastat A = compound: CCCCN(Cc1ccc(C(=O)NO)cc1)C(=O)Nc1ccccc1 [Nexturastat A]
Procedure, shortened: as §1

vemurafenib = compound: CCCS(=O)(=O)Nc1ccc(F)c(C(=O)c2c[nH]c3ncc(-c4ccc(Cl)cc4)cc23)c1F [vemurafenib]
Procedure, shortened: as §1

[5] = compound: CCCS(=O)(=O)Nc1ccc(F)c(C(=O)c2c[nH]c3ncc(Cl)cc23)c1F
Procedure, shortened: as §1

[6] = compound: CCCc1cc(C)[nH]c(=O)c1CNC(=O)c1cc(-c2ccnc(N3CCN(C)CC3)c2)cc2c1cnn2C(C)C
Procedure, shortened: as §1

givinostat = compound: CCN(CC)Cc1ccc2cc(COC(=O)Nc3ccc(C(=O)NO)cc3)ccc2c1 [givinostat]
Procedure, shortened: as §1

barasertib = compound: CCN(CCCOc1ccc2c(Nc3cc(CC(=O)Nc4cccc(F)c4)[nH]n3)ncnc2c1)CCOP(=O)(O)O [barasertib]
Procedure, shortened: as §1

Measured: log2 fold change

PRMT2 (UniProt P55345)
inactive: [1] 0.289

PPP2R5C isoform 4 (UniProt Q13362)
inactive: [1] -0.016 | [2] 0.004 | [3] 0.014 | [4] -0.064 | Nexturastat A 0.016 | vemurafenib 0.074 | [5] -0.004 | [6] -0.027 | givinostat -0.001 | barasertib 0.057

PPP2R1A (UniProt P30153)
inactive: [1] 0.011 | [2] 0.018 | [3] 0.014 | [4] 0.035 | Nexturastat A -0.104 | vemurafenib 0.031 | [5] -0.009 | [6] -0.038 | givinostat -0.037 | barasertib 0.025

PRKCB isoform 2 (UniProt P05771)
inactive: [1] 0.005 | [2] -0.014 | [3] -0.003 | [4] 0.01 | Nexturastat A -0.01 | vemurafenib 0.009 | [5] -0.007 | [6] 0.002 | givinostat 0.001 | barasertib 0.015

PRAME (UniProt P78395)
inactive: [1] -0.027 | [2] -0.01 | [3] -0.017 | [4] -0.078 | Nexturastat A 0.132 | vemurafenib 0.069 | [5] 0.137 | [6] 0.015 | givinostat 0.031 | barasertib 0.087

PPP3CB isoform 4 (UniProt P16298)
inactive: [1] -0.064 | [2] -0.016 | [3] 0.027 | [4] -0.036 | Nexturastat A -0.158 | vemurafenib -0.012 | [5] -0.019 | [6] -0.049 | givinostat -0.035 | barasertib 0.035

PPP2R1B isoform 2 (UniProt P30154)
inactive: [1] 0.093 | [2] -0.004 | [3] -0.025 | [4] 0.096 | Nexturastat A -0.049 | vemurafenib 0.062 | [5] 0.042 | [6] 0.033 | givinostat 0.01 | barasertib 0.043

PRDX1 (UniProt Q06830)
inactive: [1] -0.003 | [2] -0.003 | [3] -0.005 | [4] 0.025 | Nexturastat A -0.054 | vemurafenib 0.011 | [5] -0.012 | [6] -0.023 | givinostat -0.025 | barasertib 0.014

PRKAB2 (UniProt O43741)
inactive: [1] 0.122 | [2] -0.015 | [3] 0.106 | [4] 0.118 | Nexturastat A -0.079 | vemurafenib 0.074 | [5] 0.177 | [6] -0.18 | givinostat 0.027 | barasertib 0.067

PPP1R35 (UniProt Q8TAP8)
inactive: [1] -0.011 | [2] 0.065 | [3] 0.025 | [4] 0.034 | Nexturastat A -0.009 | vemurafenib -0.049 | [5] 0.008 | [6] -0.027 | givinostat 0.112 | barasertib -0.074

PRIM2 (UniProt P49643)
inactive: [1] -0.028 | [2] -0.018 | [3] -0.019 | [4] 0.054 | Nexturastat A 0.017 | vemurafenib 0.054 | [5] 0.03 | [6] 0.023 | givinostat 0.085 | barasertib 0.08

PPP2R2D (UniProt Q66LE6)
inactive: [1] -0.002 | [2] 0.009 | [3] -0.274 | [4] 0.034 | Nexturastat A -0.079 | vemurafenib -0.093 | [5] 0.228 | [6] -0.009 | givinostat -0.014 | barasertib 0.019

PRPSAP2 (UniProt O60256)
inactive: [1] -0.141 | [2] -0.002 | [3] -0.021 | [4] -0.07 | Nexturastat A -0.083 | vemurafenib -0.022 | [5] -0.019 | [6] -0.026 | givinostat -0.034 | barasertib -0.005

PPP2R5E (UniProt Q16537)
inactive: [1] -0.049 | [2] -0.065 | [3] -0.023 | [4] 0.066 | Nexturastat A 0.003 | vemurafenib 0.027 | [5] 0.07 | [6] 0.03 | givinostat 0.032 | barasertib 0.027

PPP1R12A (UniProt O14974)
inactive: [1] -0.012 | [2] -0.036 | [3] 0.046 | [4] 0.045 | Nexturastat A 0.001 | vemurafenib 0.015 | [5] 0.073 | [6] -0.032 | givinostat 0.048 | barasertib 0.066

PRIM1 (UniProt P49642)
inactive: [1] 0.02 | [2] -0.083 | [3] 0.061 | [4] -0.004 | Nexturastat A 0.162 | vemurafenib 0.042 | [5] 0.1 | [6] 0.074 | givinostat 0.031 | barasertib 0.056

PPP1R14B (UniProt Q96C90)
inactive: [1] -0.117 | [2] 0.009 | [3] 0.04 | [4] 0.137 | Nexturastat A 0.06 | vemurafenib 0.007 | [5] -0.014 | [6] -0.009 | givinostat -0.015 | barasertib 0.021

Quoted at random: 2 records from the list.
PPP2R5E (UniProt Q16537)
inactive: [1] -0.049 | [2] -0.065 | [3] -0.023 | [4] 0.066 | Nexturastat A 0.003 | vemurafenib 0.027 | [5] 0.07 | [6] 0.03 | givinostat 0.032 | barasertib 0.027

PRDX1 (UniProt Q06830)
inactive: [1] -0.003 | [2] -0.003 | [3] -0.005 | [4] 0.025 | Nexturastat A -0.054 | vemurafenib 0.011 | [5] -0.012 | [6] -0.023 | givinostat -0.025 | barasertib 0.014

Next entries.

PPP1R8 (UniProt Q12972)
inactive: [1] 0.011 | [2] -0.052 | [3] 0.013 | [4] 0.079 | Nexturastat A -0.06 | vemurafenib 0.061 | [5] 0.055 | [6] -0.072 | givinostat -0.009 | barasertib 0

PRMT3 (UniProt O60678)
inactive: [1] 0.016 | [2] -0.025 | [3] 0.044 | [4] 0.076 | Nexturastat A -0.026 | vemurafenib 0.056 | [5] 0.055 | [6] 0 | givinostat -0.013 | barasertib 0.035

PRPF19 (UniProt Q9UMS4)
inactive: [1] -0.012 | [2] 0.02 | [3] -0.011 | [4] 0.015 | Nexturastat A -0.073 | vemurafenib -0.034 | [5] -0.028 | [6] -0.109 | givinostat -0.027 | barasertib -0.046

PRRC1 (UniProt Q96M27)
inactive: [1] -0.03 | [2] 0.003 | [3] -0.009 | [4] 0.005 | Nexturastat A -0.05 | vemurafenib -0.02 | [5] -0.005 | [6] -0.049 | givinostat -0.008 | barasertib 0.003

PRPF38A (UniProt Q8NAV1)
inactive: [1] 0.005 | [2] -0.023 | [3] -0.058 | [4] 0.017 | Nexturastat A 0.019 | vemurafenib -0.118 | [5] -0.089 | [6] 0.065 | givinostat 0.005 | barasertib -0.024

PPP1R10 (UniProt Q96QC0)
inactive: [1] -0.069 | [2] 0.043 | [3] -0.094 | [4] -0.119 | Nexturastat A 0.341 | vemurafenib -0.08 | [5] -0.049 | [6] 0.112 | givinostat 0.091 | barasertib -0.082

PRPF8 (UniProt Q6P2Q9)
inactive: [1] -0.016 | [2] -0.043 | [3] -0.101 | [4] -0.045 | Nexturastat A 0.023 | vemurafenib -0.035 | [5] -0.021 | [6] 0.03 | givinostat -0.013 | barasertib -0.023

PRRC2B (UniProt Q5JSZ5)
inactive: [1] -0.024 | [2] 0.053 | [3] -0.04 | [4] -0.004 | Nexturastat A 0.011 | vemurafenib -0.029 | [5] -0.016 | [6] -0.016 | givinostat 0.013 | barasertib -0.004

PRMT5 (UniProt O14744)
inactive: [1] 0.018 | [2] -0.002 | [3] -0.013 | [4] 0.033 | Nexturastat A -0.03 | vemurafenib -0.015 | [5] -0.018 | [6] -0.004 | givinostat -0.022 | barasertib 0.007

PPP4R1 (UniProt Q8TF05)
inactive: [1] -0.003 | [2] -0.024 | [3] -0.002 | [4] 0.037 | Nexturastat A -0.05 | vemurafenib 0.024 | [5] 0 | [6] -0.035 | givinostat 0.014 | barasertib 0.029

PRKCI (UniProt P41743)
inactive: [1] -0.005 | [2] -0.013 | [3] -0.027 | [4] 0.038 | Nexturastat A 0.041 | vemurafenib 0.015 | [5] 0.026 | [6] -0.028 | givinostat -0.052 | barasertib 0.016

PROSER2 (UniProt Q86WR7)
inactive: [1] -0.157 | [2] -0.039 | [3] 0.054 | [4] 0.057 | Nexturastat A 0.029 | vemurafenib -0.017 | [5] -0.114 | [6] -0.061 | givinostat -0.002 | barasertib 0.106

PRKD2 isoform 3 (UniProt Q9BZL6)
inactive: [1] 0.296 | [2] -0.26 | [3] 0.117 | [4] 0.028 | Nexturastat A 0.006 | vemurafenib 0.024 | [5] 0.058 | [6] 0.083 | givinostat -0.009 | barasertib 0.093

Reference: the supplement of paper PMC10849652
